# Construct, isoform or probe ends are uncertain for at least one entry. For some assays here: The comparison behind a weaker result is the experiment's own reference, which may not be listed here. For some assays here: Where cells or extracts were used, other partners may take part.
# The chains behind the UniProt entries cited, without tags or fusion partners.
# UniProt Q9BXW9, whole entry K561R: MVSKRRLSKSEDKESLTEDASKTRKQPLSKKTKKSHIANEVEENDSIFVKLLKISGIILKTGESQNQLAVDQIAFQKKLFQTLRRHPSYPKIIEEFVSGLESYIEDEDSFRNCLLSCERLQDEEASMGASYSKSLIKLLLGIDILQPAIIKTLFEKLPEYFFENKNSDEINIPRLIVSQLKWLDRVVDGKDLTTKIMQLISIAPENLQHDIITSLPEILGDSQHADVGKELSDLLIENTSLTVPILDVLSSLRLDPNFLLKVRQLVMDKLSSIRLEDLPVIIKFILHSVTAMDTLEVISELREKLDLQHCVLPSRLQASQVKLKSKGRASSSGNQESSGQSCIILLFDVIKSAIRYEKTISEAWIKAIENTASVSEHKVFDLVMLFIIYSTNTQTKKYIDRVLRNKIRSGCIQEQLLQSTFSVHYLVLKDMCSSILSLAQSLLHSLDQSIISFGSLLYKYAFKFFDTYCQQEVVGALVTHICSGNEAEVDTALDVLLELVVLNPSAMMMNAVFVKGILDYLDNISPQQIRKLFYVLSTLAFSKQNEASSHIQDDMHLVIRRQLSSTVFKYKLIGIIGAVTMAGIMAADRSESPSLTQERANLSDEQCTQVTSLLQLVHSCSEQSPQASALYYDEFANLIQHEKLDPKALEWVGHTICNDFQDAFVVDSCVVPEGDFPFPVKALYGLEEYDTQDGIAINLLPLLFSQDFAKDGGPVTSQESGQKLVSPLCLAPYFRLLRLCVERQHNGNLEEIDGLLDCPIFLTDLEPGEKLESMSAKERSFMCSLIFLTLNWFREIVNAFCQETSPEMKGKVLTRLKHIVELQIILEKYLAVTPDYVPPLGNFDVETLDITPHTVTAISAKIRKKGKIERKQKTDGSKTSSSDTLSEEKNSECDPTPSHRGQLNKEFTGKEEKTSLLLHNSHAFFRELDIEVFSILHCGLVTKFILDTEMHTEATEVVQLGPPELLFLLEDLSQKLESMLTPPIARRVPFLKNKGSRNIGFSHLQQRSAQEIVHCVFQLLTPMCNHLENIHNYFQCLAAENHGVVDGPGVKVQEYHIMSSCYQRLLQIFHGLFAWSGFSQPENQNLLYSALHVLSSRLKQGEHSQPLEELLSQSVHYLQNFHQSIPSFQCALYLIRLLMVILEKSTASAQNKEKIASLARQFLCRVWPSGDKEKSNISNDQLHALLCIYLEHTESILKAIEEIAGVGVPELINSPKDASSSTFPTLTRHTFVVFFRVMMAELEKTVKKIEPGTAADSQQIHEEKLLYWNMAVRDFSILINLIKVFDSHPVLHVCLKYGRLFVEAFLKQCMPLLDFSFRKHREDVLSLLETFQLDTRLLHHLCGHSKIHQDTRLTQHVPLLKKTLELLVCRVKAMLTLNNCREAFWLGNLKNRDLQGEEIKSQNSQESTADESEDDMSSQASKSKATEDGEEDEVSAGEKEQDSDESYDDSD
# Tests used:
# Test in all cases: EMSA
# FANCD2 (Homo sapiens) = FANCD2 (Homo sapiens) (UniProt Q9BXW9); settings: 200 ng protein; 20 mM HEPES pH 7.6, 5 mM EDTA, 1 mM DTT, 150 mM KCl, 50 mM (NH4)2SO4, 1% Tween-20; 20 min, room temperature; native 4% PAGE; recombinant …; protein details: His6 removed by thrombin; label: 32P
# Flag-FANCD2KR K561R = Flag-FANCD2KR K561R (UniProt Q9BXW9); settings: 2 ug nuclear extract, similar to WT; 20 mM HEPES pH 7.6, 5 mM EDTA, 1 mM DTT, 150 mM KCl, 50 mM (NH4)2SO4, 1% Tween-20; 20 min, room temperature; native 4% …; protein in an extract; protein details: Flag; label: 32P
# Flag-FANCD2 WT = Flag-FANCD2 WT (UniProt Q9BXW9); settings: 2 ug nuclear extract (Methods print 2 mg); 20 mM HEPES pH 7.6, 5 mM EDTA, 1 mM DTT, 150 mM KCl, 50 mM (NH4)2SO4, 1% Tween-20; 20 min, room temperature; native 4% PAGE; protein in an extract; protein details: Flag; label: 32P
Sequence,binding result (FANCD2 (Homo sapiens)),binding result (Flag-FANCD2KR K561R),binding result (Flag-FANCD2 WT)
GAGGATCCGGACCCCCCCTTAA (double strand) [kB1 mut],binds more weakly,,
GAGTATGGGGACCCCCCCTTAA (double strand) [kB1],,binds,binds
GCTCATGGGTTTCTCCACCAAG (double strand) [k3],binds more weakly,,
GGGTCTGTGAATTCCCGGGGGT (double strand) [kB2],binds more weakly,,
